Test results taken from PubChem BioAssay AID504444 (National Center for Advancing Translational Sciences (NCATS), 2011).
Screen size: about 360,000 compounds; about 7,500 (2.1%) were called active. This list was built around the results that the source calls inconclusive (neither active nor inactive); the mix of calls is not that of the screen. The call rests on the fitted dose curve; in most records, active means well fitted inhibition curve with a large enough effect; inconclusive means small, poorly fitted or top-dose-only effect, or effect the other way; inactive means flat fitted curve, though single readings scatter. A potency beside an inconclusive call is a rough fit, not a confirmed value.

assay: Nrf2 qHTS screen for inhibitors; conditions: A549 ARE-Fluc reporter, luciferase luminescence, 18-24 h; series mostly up to 46 µM; further: nearly all actives have a fitted effect of over 60% in size
In short: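 A549 ARE_Fluc cells (5000/well, 5% FBS OPTI-MEM) pre-incubated 2 h, then treated with compounds 18-24 h at 37C/5% CO2 in concentration-response. CellTiter-Fluor viability read first; BugLite luciferase luminescence after 15 min at room temperature gives Nrf2 activity.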
Potency means the concentration at half of the fitted maximal effect.

Structure (SMILES) | Potency
Cc1cc(Nc2ccc(C)c(C)c2)n2nc(C)nc2n1 | inconclusive: 23.1 µM [falling, partial curve, poor fit]
O=C1CC(c2ccco2)CC(O)=C1C=Nc1ccccc1-c1ccccc1 (stereo not given) | inconclusive: 29.1 µM [activator, single point]
Cc1nn(-c2ccc(Cl)cc2)c(NC(=O)C(C)C)c(-c2ccccc2)c1=O | inconclusive: 0.0065 µM [falling, full curve, poor fit]
Cc1ccc(SCc2nc(N)nc(Nc3ccccc3C)n2)c(C)c1 | inconclusive: 29.1 µM [falling, single point]
OC(CN1CCCC(C(F)(F)F)C1)c1ccccc1 (stereo not given) | inconclusive: 25.9 µM [falling, single point]
COc1ccc(NC(=O)c2ccco2)cc1NC(=O)C(C)Oc1ccc(Cl)cc1Cl (stereo not given) | inconclusive: 16.4 µM [falling, single point]
O=C(COc1ccc(Cl)cc1Cl)Nc1ccc(Cl)cn1 | inconclusive: 2.31 µM [activator, partial curve, poor fit]
CC(=O)Nc1ccc(S(=O)(=O)Nc2nc3ccccc3nc2Nc2ccc(C(=O)O)c(O)c2)cc1 | inactive
O=C(Nc1ccc(NC(=O)c2cccs2)cc1)c1cccs1 | inactive
Cc1n(Cc2ccccc2)c2ccccc2[n+]1Cc1ccccc1 | active: 16.4 µM
COc1ccc(N(CC(=O)Nc2cccc(N(C)S(C)(=O)=O)c2)S(=O)(=O)c2ccccc2)cc1Cl | inconclusive: 29.1 µM [falling, single point]
CCSC1(SCC)N=C(N)C2(C#N)C(c3ccccc3)NC3=C(CCC3)C12C#N (stereo not given) | inactive
Cc1cccnc1NC(=O)CNC(=O)c1sc2ccccc2c1Cl | inconclusive: 6.51 µM [activator, partial curve]
N/C(=N\OC(=O)c1ccc(Cl)cc1Cl)c1ccccc1 | inconclusive: 18.4 µM [activator, single point]
Cc1c(C(=O)OCC(=O)N2CCCC2)cccc1[N+](=O)[O-] | inconclusive: 4.11 µM [activator, full curve, poor fit]
O=C(Cc1ccc(-n2c(=O)[nH]c3ccccc3c2=O)cc1)N1CCN(c2ccccc2)CC1 | inconclusive: 25.9 µM [falling, partial curve, poor fit]
CCOC(=O)c1cccc(NC(=O)c2cc(S(=O)(=O)N3CCCC3)cn2C)c1 | inconclusive: 14.6 µM [activator, single point]
COC(=O)c1cc(S(=O)(=O)NCCc2sccc2C)c[nH]1 | inconclusive: 20.6 µM [falling, partial curve, poor fit]
CCNC(=O)NC(=O)C(C)OC(=O)c1ccc(-n2nc(SC)sc2=S)cc1 (stereo not given) | inactive
CC(Sc1ncnc2sc(-c3ccccc3)cc12)C(=O)NCC1CCCO1 (stereo not given) | inconclusive: 13 µM [activator, single point]
Cc1ccccc1C(=O)c1cccn1CC(=O)NCc1ccccc1Cl | inconclusive: 20.6 µM [activator, single point]
O=C(Nc1nc(-c2ccc(Cl)s2)cs1)c1cccs1 | inconclusive: 16.4 µM [falling, single point]

Structure (SMILES) | Potency
O=S(=O)(Nc1ccc2nc(N3CCOCC3)sc2c1)c1ccccc1 | inactive
Cc1ccccc1-n1sc2cc(F)ccc2c1=O | inactive
O=C(Nc1ccc(F)cc1F)c1noc2c1CCC2 | inconclusive: 16.4 µM [activator, partial curve, poor fit]
CCn1c(C)c(C2=CCN(S(=O)(=O)c3ccc(C)cc3)CC2)c2ccccc21 | inconclusive: 0.517 µM [falling, full curve, poor fit]
CCOC(=O)c1ccccc1N/C=C/C(=O)c1ccccc1 | inconclusive: 0.291 µM [activator, partial curve, poor fit]
COc1ccc(NC(=O)C2=C(C)Nc3c(C(=O)Nc4ccc(C)cc4)cnn3C2c2cccc(Cl)c2)cc1 (stereo not given) | inconclusive: 5.17 µM [falling, full curve, poor fit]
CCCn1c(Oc2ccccc2)nc2c1c(=O)n(C)c(=O)n2C | inactive
O=C(CN1CCCCCCC1)N/N=C/c1ccc([N+](=O)[O-])o1 | inconclusive: 25.9 µM [falling, single point]
O=C(N/N=C/c1ccco1)C1CC1c1ccccc1 (stereo not given) | inactive
COc1ccccc1N1CCN(S(=O)(=O)c2ccc(F)cc2)CC1 | inactive
CC(CC(=O)N1CCN(c2ccc(C(F)(F)F)cn2)CC1)n1ccnc1 (stereo not given) | inconclusive: 29.1 µM [falling, partial curve, poor fit]
Cc1cc(C(=O)N/N=C2\CC(=O)CC(C)(C)C2)c2ccccc2n1 | inconclusive: 6.51 µM [activator, single point]
CC1=CC(=O)C2=C(C)CC[C@@H]3[C@H](OC(=O)[C@H]3C)[C@@H]12 | active: 6.51 µM
CCCC(=O)Nc1ccc2nc(C)n(Cc3ccccc3Cl)c(=O)c2c1 | inconclusive: 14.6 µM [falling, partial curve, poor fit]
O=C(CSc1ncccc1C(=O)O)c1cccc(C(F)(F)F)c1 | inconclusive: 20.6 µM [activator, partial curve]
CN(C)c1ccc(/C=C(/C#N)C(=O)NCc2ccccc2)o1 | inconclusive: 2.91 µM [activator, partial curve]
CCN=C1SCC(=O)N1c1ccc(OC)cc1 | inconclusive: 2.59 µM [falling, single point]
COc1ccc(S(=O)(=O)N2CCC(C(=O)Nc3cccc(C(C)=O)c3)CC2)cc1C | inconclusive: 13 µM [falling, partial curve]
COc1cc(OC)cc(-c2cc3cc4c(cc3cn2)OCO4)c1 | inconclusive: 2.59 µM [activator, full curve]
Cc1cccc(-c2nc3ccc(C(=O)NCCN4CCN(C)CC4)cc3nc2-c2cccc(C)c2)c1 | inconclusive: 29.1 µM [activator, single point]
CCC(=O)Nc1cccc(NC(=O)c2cccnc2)c1 | inconclusive: 0.517 µM [falling, partial curve, poor fit]
COc1ccc(-c2cc(C)no2)cc1S(=O)(=O)N1CCN(c2ccc(C(C)=O)cc2)CC1 | active: 13 µM

Structure (SMILES) | Potency
O=C1C2C3C=CC(C3=C3CCCCC3)C2C(=O)N1c1ccccc1 (stereo not given) | inactive
C=CCn1cc(C(=O)NCCCOCC)c(=O)c2cc(S(=O)(=O)N(CC)CC)ccc21 | inconclusive: 32.6 µM [falling, single point]
COc1c(O)ccc(/C=N\NC(=O)c2ccc3c(c2)OCO3)c1[N+](=O)[O-] | active: 11.6 µM
O=C(CCCn1c(=O)c2cccn2c2ccccc21)Nc1cccc(Cl)c1 | inconclusive: 5.8 µM [activator, partial curve]
CCc1c(C(=O)Nc2ccc(C)c(C)c2)[nH]c(C)c1C(C)=O | inconclusive: 25.9 µM [activator, partial curve]
CCCCN1CC[C@H]2C=CC[C@@H](C(=O)NCCc3ccccc3)[C@H]2C1=O | inconclusive: 16.4 µM [activator, single point]
Cc1ccc(N(CC(=O)NCCSc2nc3ccccc3s2)S(=O)(=O)c2ccccc2)c(C)c1 | inconclusive: 29.1 µM [falling, single point]
O=C(c1nc[nH]c1C(=O)N1CCc2ccccc2C1)N1CCc2ccccc2C1 | inconclusive: 1.64 µM [activator, full curve, poor fit]
CCOc1ccccc1CNC(=O)CCCn1c(=O)c2cccn2c2cccnc21 | inconclusive: 13 µM [falling, partial curve, poor fit]
O=C(Cn1cnc(S(=O)(=O)N2CCOCC2)c1)Nc1ccc(OC(F)(F)F)cc1 | inconclusive: 23.1 µM [activator, partial curve, poor fit]
O=C(C1CC(=O)N(c2ccccc2)C1)N1CCCCCC1 (stereo not given) | inactive
CN(CCc1ccccc1)C(=O)c1cccc(NC(=O)Cc2ccc([N+](=O)[O-])cc2)c1 | inconclusive: 18.4 µM [falling, single point]
O=C(NCCCN1CCCC1=O)C(=O)NCC1OCCN1S(=O)(=O)c1ccc(Br)cc1 (stereo not given) | inconclusive: 0.103 µM [falling, full curve, poor fit]
Cc1c(C(=O)N(C)CCC#N)oc2ccc(S(=O)(=O)N3CC(C)CC(C)C3)cc12 (stereo not given) | inconclusive: 25.9 µM [falling, partial curve]
Cc1ccsc1/C=N/Nc1ccc(C(=O)O)cc1 | inconclusive: 8.2 µM [activator, partial curve]
CCOc1ccc(C(c2c(NC(=O)c3ccccc3)sc(C)c2C)N2CCN(CCO)CC2)cc1 (stereo not given) | inactive
COCCSc1nnc(NC(=O)c2ccc(NC(C)=O)cc2)s1 | inconclusive: 23.1 µM [activator, partial curve, poor fit]
CC(C)c1ccc(Nc2ncccc2C(=O)O)cc1 | inconclusive: 6.51 µM [activator, partial curve]
CC(=O)N(Cc1cccs1)Cc1cc2ccc(C)c(C)c2nc1Cl | inconclusive: 29.1 µM [falling, partial curve, poor fit]
C[C@]12CC[C@H](OC(=O)CCC(=O)O)CC1=CCC1C2CC[C@@]2(C)C1CC[C@@H]2N (stereo not given in full) | inconclusive: 6.51 µM [activator, single point]
O=C(COc1cccc(C(F)(F)F)c1)Nc1ccc2[nH]ncc2c1 | inconclusive: 16.4 µM [falling, partial curve, poor fit]

An excerpt of these results, field by field.
O=C(c1nc[nH]c1C(=O)N1CCc2ccccc2C1)N1CCc2ccccc2C1
  Potency: inconclusive: 1.64 µM [activator, full curve, poor fit]
CCOc1ccccc1CNC(=O)CCCn1c(=O)c2cccn2c2cccnc21
  Potency: inconclusive: 13 µM [falling, partial curve, poor fit]
O=C(Cn1cnc(S(=O)(=O)N2CCOCC2)c1)Nc1ccc(OC(F)(F)F)cc1
  Potency: inconclusive: 23.1 µM [activator, partial curve, poor fit]
